Paper PMC9534319
These are yes or no findings as the source states them, for the method shown. Some entries that bind do so weakly or less than the wild type.

Sequences of proteins named here, by UniProt entry; tags and fusion partners are left off. A change or cut given only in a name is not applied to a line headed by its entry.
UniProt P02452: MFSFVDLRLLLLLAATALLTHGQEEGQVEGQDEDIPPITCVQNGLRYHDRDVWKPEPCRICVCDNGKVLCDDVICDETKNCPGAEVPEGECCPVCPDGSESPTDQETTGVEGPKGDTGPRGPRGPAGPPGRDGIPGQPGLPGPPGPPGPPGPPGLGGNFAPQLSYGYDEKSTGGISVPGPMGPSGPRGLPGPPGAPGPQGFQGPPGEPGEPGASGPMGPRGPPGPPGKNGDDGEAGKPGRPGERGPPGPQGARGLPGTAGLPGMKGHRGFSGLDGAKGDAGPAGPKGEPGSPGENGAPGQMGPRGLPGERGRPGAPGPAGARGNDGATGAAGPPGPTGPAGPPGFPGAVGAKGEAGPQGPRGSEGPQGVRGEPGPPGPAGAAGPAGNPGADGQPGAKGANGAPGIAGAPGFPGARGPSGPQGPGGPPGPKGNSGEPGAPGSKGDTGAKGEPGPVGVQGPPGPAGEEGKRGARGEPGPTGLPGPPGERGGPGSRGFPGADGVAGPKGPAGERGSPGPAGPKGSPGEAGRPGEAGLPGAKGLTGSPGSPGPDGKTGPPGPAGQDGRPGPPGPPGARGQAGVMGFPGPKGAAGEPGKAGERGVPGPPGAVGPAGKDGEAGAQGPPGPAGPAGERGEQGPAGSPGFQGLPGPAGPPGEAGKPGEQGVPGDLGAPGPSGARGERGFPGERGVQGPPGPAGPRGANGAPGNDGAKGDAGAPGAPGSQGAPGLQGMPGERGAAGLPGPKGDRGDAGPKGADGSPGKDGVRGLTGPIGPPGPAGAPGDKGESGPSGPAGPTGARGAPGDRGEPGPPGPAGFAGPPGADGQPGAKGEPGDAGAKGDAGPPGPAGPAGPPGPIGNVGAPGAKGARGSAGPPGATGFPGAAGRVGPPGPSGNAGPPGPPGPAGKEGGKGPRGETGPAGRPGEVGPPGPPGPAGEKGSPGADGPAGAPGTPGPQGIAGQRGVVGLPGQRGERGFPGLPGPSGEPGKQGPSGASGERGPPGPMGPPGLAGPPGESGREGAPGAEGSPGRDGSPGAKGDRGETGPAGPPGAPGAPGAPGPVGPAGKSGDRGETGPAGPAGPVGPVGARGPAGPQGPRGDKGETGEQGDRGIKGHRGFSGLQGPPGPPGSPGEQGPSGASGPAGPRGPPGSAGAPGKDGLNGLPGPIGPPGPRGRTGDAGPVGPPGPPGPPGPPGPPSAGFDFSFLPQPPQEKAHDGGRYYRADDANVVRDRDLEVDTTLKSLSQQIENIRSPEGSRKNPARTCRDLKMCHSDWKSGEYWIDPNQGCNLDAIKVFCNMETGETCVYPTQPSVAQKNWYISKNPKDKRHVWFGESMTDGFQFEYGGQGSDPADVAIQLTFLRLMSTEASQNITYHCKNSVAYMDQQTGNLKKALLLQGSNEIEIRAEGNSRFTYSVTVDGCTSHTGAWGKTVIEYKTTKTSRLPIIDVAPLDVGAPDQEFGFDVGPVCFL

Target: Collagen I (UniProt P02452)
Experiment: ELISA; competition ELISA: Collagen I coated on 96-well plate at 1 μg/ml; LAIR1-hFc (2 μg/ml) pre-incubated with h219, h94 or hIgG (5 μg/ml), added after blocking with 5% non-fat milk; detected with HRP conjugated goat anti-human IgG Fc; both purified

B1: LAIR1-hFc (Fc fusion, UniProt Q6GTX8 22-165)
chain: QEEDLPRPSISAEPGTVIPLGSHVTFVCRGPVGVQTFRLERDSRSTYNDTEDVSQASPSESEARFRIDSVREGNAGLYRCIYYKPPKWSEQSDYLELLVKESSGGPDSPDTEPGSSAGPTQRPSDNSHNEHAPASQGLKAEHLY
Q: For B1, which binding is on record?
A: binds
